Measured values from PMC11116813.
These are yes or no findings as the source states them, for the method shown. For part of these data: Binding seen in cells or lysates may run through a third protein. Some binding calls cover weakened binding; strength is not graded here. For part of these data: Where a sequence is shown, tags or fusion partners need not be part of it.

Protein sequences, listed by entry. Tags and fused reporters are not part of them.
UniProt P45973: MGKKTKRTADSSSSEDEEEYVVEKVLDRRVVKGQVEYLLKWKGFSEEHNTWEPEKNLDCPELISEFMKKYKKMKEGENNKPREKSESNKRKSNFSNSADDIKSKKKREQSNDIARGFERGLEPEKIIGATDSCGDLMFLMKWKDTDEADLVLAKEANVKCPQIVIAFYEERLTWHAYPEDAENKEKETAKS

How the values were obtained:
[1] = molecular target: T1, human INCENP (121-270) PVI_3A -6His, GST removed (human) (UniProt Q9NQS7); test: condition: 10 μM fragment in the cell, 100 μM HP1α dimer in the syringe; ITC; VP-ITC, 10 μM INCENP fragment in the cell, 100 μM HP1α dimer in the syringe, 20°C, 10 mM Tris pH 8.0, 150 mM NaCl, 1 mM DTT (Fig. 2C); one-site model; both purified
T1 sequence: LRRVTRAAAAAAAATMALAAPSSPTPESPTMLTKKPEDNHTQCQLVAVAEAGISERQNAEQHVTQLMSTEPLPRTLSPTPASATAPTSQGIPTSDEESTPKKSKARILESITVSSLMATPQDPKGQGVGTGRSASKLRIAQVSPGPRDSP

[2] = molecular target: T2, custom-made peptide of hINCENP (159-178) (human) (UniProt Q9NQS7); test: condition: 10 μM peptide in the cell, 100 μM HP1α dimer in the syringe; ITC; VP-ITC, 10 μM INCENP peptide or fragment in the cell, 100 μM HP1α full-length or CSD dimer in the syringe, 20°C, 20 mM NaPO4 pH 7.0, 150 mM NaCl, 1 mM DTT (Fig. 2D, Fig. 3D and E); one-site model; both purified
T2 sequence (peptide): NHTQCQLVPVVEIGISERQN

[3] = molecular target: human INCENP -6Myc full-length wild type, expressed in HeLa cells (human) (UniProt Q9NQS7); test: co-IP; Extracts of HeLa cells expressing INCENP -6Myc versions (mitotic, STLC; also G2, RO3306, in Fig. S5D); IP with anti-Myc magnetic beads, 1 h at 4°C, lysis buffer with 150 mM NaCl; immunoblot

| binding [1] | binding [2] | binding [3] | Substance |
| --- | --- | --- | --- |
| no binding | no binding | – | full-length human HP1α WT (hHP1α), recombinant (from UniProt P45973 1-191) |
| – | – | binds | HP1α, endogenous in HeLa cell extracts (from UniProt P45973 1-191) |
